Measurements reported in PubChem BioAssay AID1053208 (Peter MacCallum Cancer Centre, 2014).

- Screen: 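Genes whose silencing cuts survival of bone tumour cells only with doxorubicin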 (primary screen)
- System: mouse osteosarcoma cells, early-passage culture from an engineered mouse model of fibroblastic bone tumour
- Reagents: siRNA pool against mouse genes, 40 nM
- Time to read-out: about 120 h (48 h before drug, then 72 h with drug)
- Treatment: doxorubicin 100 nM for 72 h, roughly 30-40% inhibitory dose
- Read-out: 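Luminescent ATP signal taken as viability with or without 100 nM doxorubicin for 72 h; mean of two wells set against non-targeting siRNA and turned into robust z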
- Direction: viability z-score with doxorubicin and doxorubicin viability vs non-targeting: higher = more viable cells under doxorubicin; viability z-score without drug: higher = more viable cells with knock-down alone; z-score of drug to no-drug ratio: higher = less drug sensitisation by knock-down
- Rule for the call: 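a pool counts as active when its viability z-score with doxorubicin is -2 or below and its z-score without drug lies between -2 and 2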
The whole screen tested about 17,000 reagents; shown is an unselected part. In the full data, 788 (4.7%) were called active. 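Calls rest on z-score classes alone; an extra cut-off of viability at most 70% of control was not applied to them.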 A reagent listed more than once was tested more than once; the source does not tell the runs apart.

no.	target	combined z-score class	viability z-score with doxorubicin	viability z-score without drug	z-score of drug to no-drug ratio	doxorubicin viability vs non-targeting	call
1	Msantd1 (Myb/SANT-like DNA-binding domain containing 1)	no change with or without drug	0.67	1.01	0.11	1	inactive
2	Slc12a8	high cell count with and without drug	2.25	2.87	0.45	1.14	inactive
3	Nudt21 (nudix hydrolase 21)	no change with or without drug	1.35	-0.17	1.69	1.06	inactive
4	Cd300e (CD300E molecule)	high cell count without drug only	0.34	2.02	-0.79	0.97	inactive
5	Hpn (hepsin)	no change with or without drug	-0.22	1.35	-1.01	0.92	inactive
6	Ndufb3 (NADH:ubiquinone oxidoreductase subunit B3)	low cell count without drug only	-1.69	-3.04	0.56	0.79	inactive
7	Fam133b (family with sequence similarity 133, member B)	no change with or without drug	-1.57	-0.84	-1.01	0.8	inactive
8	Myh11 (myosin, heavy polypeptide 11, smooth muscle)	no change with or without drug	-0.22	1.18	-0.9	0.92	inactive
9	Or3a1c (olfactory receptor family 3 subfamily A member 1C)	no change with or without drug	0.79	0.84	0.34	1.01	inactive
10	Irak3 (interleukin-1 receptor-associated kinase 3)	no change with or without drug	0.22	-0.51	0.67	0.96	inactive
11	C1s2 (complement component 1, s subcomponent 2)	no change with or without drug	1.69	0.84	1.24	1.09	inactive
12	Sbno2 (strawberry notch 2)	no change with or without drug	-0.9	0.51	-1.12	0.86	inactive
13	Fnbp1 (formin binding protein 1)	no change with or without drug	-0.45	-0.34	-0.11	0.9	inactive
14	Pex13 (peroxisomal biogenesis factor 13)	no change with or without drug	1.24	0.17	1.24	1.05	inactive
15	Ccl12 (C-C motif chemokine ligand 12)	no change with or without drug	0.34	-1.18	1.35	0.97	inactive
16	Ccl12 (C-C motif chemokine ligand 12)	no change with or without drug	0	-0.84	0.67	0.94	inactive
17	LOC269472 (retired record)	no change with or without drug	1.8	1.69	0.79	1.1	inactive
18	Stab1 (stabilin 1)	no change with or without drug	0	0.51	-0.22	0.94	inactive
19	9630013D21Rik (RIKEN cDNA 9630013D21 gene)	no change with or without drug	0	0.51	-0.22	0.94	inactive
20	Ccr4 (C-C motif chemokine receptor 4)	low cell count with and without drug	-2.02	-2.02	-0.67	0.76	inactive
21	Matn1 (matrilin 1, cartilage matrix protein)	no change with or without drug	0	-1.52	1.24	0.94	inactive
22	Capza1b (capping actin protein of muscle Z-line subunit alpha 1B)	no change with or without drug	0.34	-1.85	1.91	0.97	inactive
23	Gm9735 (predicted gene 9735)	high cell count with and without drug	2.02	2.19	0.67	1.12	inactive
24	Sptbn4 (spectrin beta, non-erythrocytic 4)	no change with or without drug	0.56	0.34	0.45	0.99	inactive
25	Traf5 (TNF receptor-associated factor 5)	no change with or without drug	-0.67	0.17	-0.67	0.88	inactive
26	Rcan2 (regulator of calcineurin 2)	no change with or without drug	0	0.84	-0.45	0.94	inactive
27	Amer1 (APC membrane recruitment 1)	no change with or without drug	0.22	0.34	0.11	0.96	inactive
28	Jam3 (junction adhesion molecule 3)	no change with or without drug	-0.67	0.17	-0.67	0.88	inactive
29	Uts2b (urotensin 2B)	low cell count with doxorubicin only	-2.7	-0.34	-2.59	0.7	active
30	Catsper1 (cation channel, sperm associated 1)	no change with or without drug	0.9	1.01	0.34	1.02	inactive
31	Agmo (alkylglycerol monooxygenase)	no change with or without drug	0.45	-0.51	1.01	0.98	inactive
32	Myog (myogenin)	no change with or without drug	1.35	-0.67	2.02	1.06	inactive
33	Actl11 (actin-like 11)	no change with or without drug	0.79	0.51	0.56	1.01	inactive
34	Smpd3 (sphingomyelin phosphodiesterase 3, neutral)	no change with or without drug	-0.22	-1.35	0.9	0.92	inactive
35	Dhdh (dihydrodiol dehydrogenase)	no change with or without drug	-1.8	0.67	-2.14	0.78	inactive
36	Tyrp1 (tyrosinase-related protein 1)	no change with or without drug	-1.57	-1.69	-0.45	0.8	inactive
37	Xlr3c (X-linked lymphocyte-regulated 3C)	no change with or without drug	0.56	0.51	0.34	0.99	inactive
38	Or52b2 (olfactory receptor family 52 subfamily B member 2)	no change with or without drug	-0.67	-0.17	-0.45	0.88	inactive
39	Etnppl (ethanolamine phosphate phospholyase)	no change with or without drug	-0.22	1.18	-0.9	0.92	inactive
40	Jag2 (jagged 2)	no change with or without drug	-0.9	0.17	-0.9	0.86	inactive
41	Zswim4 (zinc finger SWIM-type containing 4)	no change with or without drug	-0.34	-0.84	0.34	0.91	inactive
42	Ebpl (emopamil binding protein-like)	no change with or without drug	-0.9	0.17	-0.9	0.86	inactive
43	Myoz2 (myozenin 2)	no change with or without drug	0.45	0.84	0	0.98	inactive
44	Per2 (period circadian clock 2)	no change with or without drug	-1.46	1.52	-2.25	0.81	inactive
45	Zdhhc1 (zinc finger, DHHC domain containing 1)	no change with or without drug	0.9	0.51	0.67	1.02	inactive
46	Cd109 (CD109 antigen)	no change with or without drug	-1.24	-0.84	-0.67	0.83	inactive
47	Extl1 (exostosin-like glycosyltransferase 1)	no change with or without drug	0.45	0.51	0.22	0.98	inactive
48	Brinp3	no change with or without drug	1.12	0.17	1.12	1.04	inactive
49	Pcdhb1 (protocadherin beta 1)	no change with or without drug	0.34	0.51	0.11	0.97	inactive
50	Stradb (STE20-related kinase adaptor beta)	no change with or without drug	0.67	-1.85	2.36	1	inactive
51	Drc11 (dynein regulatory complex subunit 11)	high cell count without drug only	-0.34	2.19	-1.57	0.91	inactive
52	Mcoln3 (mucolipin 3)	no change with or without drug	0.79	1.85	-0.34	1.01	inactive
53	Sim2 (single-minded family bHLH transcription factor 2)	no change with or without drug	0	-0.51	0.45	0.94	inactive
54	Klhdc4 (kelch domain containing 4)	low cell count with doxorubicin only	-2.92	0.34	-3.15	0.68	active
55	Slc35f2	no change with or without drug	0.9	-0.51	1.46	1.02	inactive
56	Ttc1 (tetratricopeptide repeat domain 1)	low cell count with doxorubicin only	-3.82	-1.85	-3.04	0.6	active
57	M1ap (meiosis 1 associated protein)	no change with or without drug	-1.12	-0.51	-0.79	0.84	inactive
58	Slc26a2	no change with or without drug	1.12	0.51	0.9	1.04	inactive
59	Atp6v0a2 (ATPase, H+ transporting, lysosomal V0 subunit A2)	no change with or without drug	-0.11	-0.51	0.34	0.93	inactive
60	9130019P16Rik (RIKEN cDNA 9130019P16 gene)	no change with or without drug	-0.45	-0.51	0	0.9	inactive
61	Gpr6 (G protein-coupled receptor 6)	no change with or without drug	0.34	-0.51	0.79	0.97	inactive
62	Trav3-3 (T cell receptor alpha variable 3-3)	no change with or without drug	-1.01	-0.17	-0.9	0.85	inactive
63	Bbs1 (Bardet-Biedl syndrome 1)	no change with or without drug	0.45	0.17	0.45	0.98	inactive

Entries listed so far called active:
target	combined z-score class	viability z-score with doxorubicin	viability z-score without drug	z-score of drug to no-drug ratio	doxorubicin viability vs non-targeting	call
Uts2b (urotensin 2B)	low cell count with doxorubicin only	-2.7	-0.34	-2.59	0.7	active
Klhdc4 (kelch domain containing 4)	low cell count with doxorubicin only	-2.92	0.34	-3.15	0.68	active
Ttc1 (tetratricopeptide repeat domain 1)	low cell count with doxorubicin only	-3.82	-1.85	-3.04	0.6	active
